From PMC4405579
No constants are given. Whether binding was seen depends on the method and setting. In cells and extracts the contact can be indirect. Some binding calls cover weakened binding; strength is not graded here.

The chains behind the UniProt entries cited, without tags or fusion partners. Where a name states a change or a piece, a line headed by the entry shows the natural chain unless it says otherwise. A line that says so, or that is headed by a name, gives the form on record, which may keep a tag or linker. Residues count along the entry.
Flag-tagged full-length CREB, phosphorylated (S133) (P16220, form named): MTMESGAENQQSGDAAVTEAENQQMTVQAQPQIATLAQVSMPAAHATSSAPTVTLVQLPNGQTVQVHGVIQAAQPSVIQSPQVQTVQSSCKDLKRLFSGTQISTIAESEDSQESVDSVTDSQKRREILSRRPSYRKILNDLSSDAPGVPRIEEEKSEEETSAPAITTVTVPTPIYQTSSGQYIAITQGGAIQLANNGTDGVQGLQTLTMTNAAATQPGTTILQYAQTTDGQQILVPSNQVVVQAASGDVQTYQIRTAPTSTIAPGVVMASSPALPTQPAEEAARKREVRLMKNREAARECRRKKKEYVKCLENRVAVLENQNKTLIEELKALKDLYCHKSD
UniProt Q92793, residues 586-666: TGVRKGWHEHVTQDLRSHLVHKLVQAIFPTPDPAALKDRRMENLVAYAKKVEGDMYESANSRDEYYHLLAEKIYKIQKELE

Experiments:
[1] = biological target: Flag-tagged full-length CREB, phosphorylated (S133) (UniProt P16220); experiment: co-IP; as a3, but cells treated with NASTRp; immunoprecipitation with anti-Phospho-CREB (S133) antibody
[2] = biological target: Flag-tagged full-length CREB, phosphorylated (S133) (UniProt P16220); experiment: co-IP; Flag-CREB1 stably expressing 293T cells transfected with HA-KIX; forskolin; immunoprecipitation with anti-Phospho-CREB (S133) antibody, western blot

HA-KIX (CBP; amino acids 586-666) (from UniProt Q92793 586-666) (domain or fragment)
binding [1]: no binding (condition: cells treated with NASTRp)
binding [2]: binds
